Source: PMC12486255

B1: Receptor Interacting Protein Kinase 3 (protein, UniProt Q9Z2P5 1-478)
chain: MSSVKLWLNGASSISLVGSEELENLGFVGKGGFGAVFRARHTAWNLDVAVKIVNSKKISREVKAMVNLRHENVLLLLGVTENLEWDYVYGPALVTGFMENGSLSGLLQPSCPRPWPLLCRLLEEVVLGMCYLHSLNPSLLHRDLKPSNVLLDPELHAKLADFGLSTFQGGSQSGSGSGSRDSGGTLAYLAPELLDNDGKASKASDVYSFGVLVWTVLAGREAEVVDKTSLIRGAVCNRQRRPPLTELPPDSPETPGLEGLKELMTHCWSSEPKDRPSFQDCESKTNNVYILVQDKVDAAVSKVKHYLSQYRSSDTKLSARESSQKGTEVDCPRETIVYEMLDRLHLEEPSGSVPERLTSLTERRGKEASFGHATPAGTSSDTLAGTPQIPHTLPSRGTTPRPAFTETPGPDPQRNQGDGRNSNPWYTWNAPNPMTGLQSIVLNNCSEVQIGQHNCMSVQPRTAFPKKEPAQFGRGRGW
B2: Pyrin (protein, UniProt Q9JJ25 1-747)
chain: MANTRVDHLLNTLEELLPYELEKFKFKLHTTSLEKGHSRIPLSLVKMARPIKLTRLLLTYYGEEYAVRLTLQILRATNQRQLAEELHKATGPEHLTEENGVGGSVQSSAENKDKGVKGSDVPGEDEAQQNDDESDILPPIQAEVGKGPQKKSLAKRKDQRGPESLDSQTKPGARSAAPLYRRTLVTQSPGDKENRAGAQPQECQLCREAARSTAMSQGGERSRRLKCICLQERSDPGVLKLPLTQKKENPQIQKLFRLKRKQEMAVSFVREATLNGRTTGTLEKGVGIPEHSMMLDEETSRNMSSKISLTREKRCTASWTENGNGGPETPETLGETVSSILCDSCSPKVLLSLGEKLAQTPEDPASLGQAASKGRSRDKVACPLCHTQGELPAKACVQSSCSCSVAPGDPKASGRHSICFQCQSSRAGKSCEAQSPQFLPQCPRHMKQVQLLFCEDHREPICLICRLSQEHQGHRVRPIEEAALQYKEQIRKQLERLREMRGYVEEHKLPADKKAEDFLKQTETQKQRISCPLEKLFQFLEQQEQLFVTWLQELVQTIGKVRETYYTQVSLLDKLIGELEAKQDQPEWELMQDIGATLHRAETMTASELLGIPPGVKEKLHLLYQKSKSAEKNMQRFSEMLGSEMAFSASDVATREGCRPSTTKAQALIPTVHLKCDGAHTQDFDVILCAELEAGGSEPQDYLHPSSAQDTPELHEIHSQNNKRKFKSFLKWKPSFSRTDRCLRTCW
B3: AIM2 (protein, UniProt D4A9W0 1-356)
chain: MESDFREMLLLTGLDHITEEELKRFKYLALTEFNIPRKTLNIADRTELADQLIQSAGAASAVAKAISIFQKLNYMDIAKALEEKKKEAESKYVTNTKKRGTQKVENRSQAKNCSVASATCSDKDFKGHSATEVCPQVKPQKKQMVAEQEAIREDLQQDSLVVMVLKAMNPFECETQEGKQKIFHATVATETEFFFVKVLNAQFKDKFIPKRTIQISNYLRHSYFVEVTSSSVVVDVESSHKVCVPNNIMKKAGETPKISKLKTLPCGTIVNGLFKVQKITEQKDRVIYGIHDKRGTMEVLVLGNQSKTKCEEGDKIRLTFFEVSNNRGKIQLKSGPCSIYKVIKAAKPKTKVKSVE
B4: Caspase 1 (protein, UniProt P43527 1-402)
chain: MADKVLRAKRKQFINSVSVGTINGLLDELLEKRVLNQEEMDTIKLANITVMEKARDLCDHVTKKGPRASQMFITYICNEDCYLAEILELQSGPSAETVFVTEDSKGGHPFSSETKEKLNKEGGAFPGPSGSLKFCPLEIAQKLWKENHSEIYPIMKTPTRTRLALIICNTDFQHLSRRVGADVDLREMKLLLQDLGYTVKVKENLTALEMTKELKEFAACPEHKTSDSTFLVFMSHGLQEGICGITYSNEVADILKVDTIFQMMNTLKCPSLKDKPKVIIIQACRGEKQGVVLLKDSVGNSEEGFLTDAIFEDDGIKKAHIEKDFIAFCSSTPDNVSWRHPVRGSLFIESLIKHMKEYAWSCDLEDIFRKVRFSFEQPDSRLQMPTTERVTLTKRFYLFPGH
B5: Caspase 8 (protein, UniProt Q9JHX4 1-482)
chain: MDFHSCLYDIAERLGNEELAALKFLCLDHIPQKKQESINDVLVLFQRLQEEGMLEEDNLSFLKELLFHISRRDLLSRVLKSSPEEMVRELQVLGKAQVSAYRVMLFKLSEDMDKEDLKSFKFLLITEIPKCKLQDNSSLLDIFVEMEKRTILAENNLVTLKSICFRVNRSLLGRIDDYERSSTERRMSTEGGEELPVSVLDEVTIKMQDMWDSPGEQESESLNSDNVYQMKSKPRGYCLIFNNNNFSKAREDIPKLSNMRDRKGTNYDEEALSKTFKELHFEIVSFSDCTASQIHEVLVSYQSKDHKGKDCFICCILSHGDKGIVYGTDGKEASIYELTSYFTGSKCPSLAGKPKIFFIQACQGNNFQKAVPVPDETGLEQEHVLEEDSSSYKNYIPDEADFLLGMATVKNCVSYRDPTRGTWYIQSLCQSLRERCPRGEDILSILTGVNYDVSNKDNPRNMGKQMPQPIFTLRKKLFFPPN
B6: Z-DNA binding protein 1 (protein, UniProt Q8VDA5 1-409)
chain: MAEASVDLGTGDNLEQKILQVLSDAGSPVQIDQLLKKLQVPKKILNQVLYRLKKEGRVSSPAPATWSLGGDGASGDGAPEIPEDSAAQPSLEERILRFLETKGPQRALHIAKALGMTTAKEVNPILYSMRNKHLLTVSDTQMWTIYRSSQEGQERACSGVGQESPAVIYQQNPINMICQQGPNSLISISNSKAIQIGHGNVMSRQTICGDPGPGTPHHAPLPVLEDAAAQDTPPGTHGAQLIHLNKSMLRRVQLGHGNEMNLERDPVEHPIFSFSSSPPESTTTADPETAFNMQTPEPGPHPEGGTTQIVHIKSCLLEDTTVGNNNKMTIHRRSKGGTKESADSQELKEDTGASSEATPPRSCLHTPSDSTLLTSELTAMALGDGSPQITESMLREDEVQAAETCQTQD

Molecular target: apoptosis-associated speck-like protein containing a CARD (rat (endogenous in primary rat articular chondrocytes))
Assay: co-IP; lysates of primary rat articular chondrocytes treated with pH 6.0 acid for 12 h; IP with anti-ASC antibody or rabbit IgG control, protein A/G magnetic beads (Classic IP/CoIP Kit), immunoblot

Binder | binding
B1 | binds
B2 | binds
B3 | binds
B4 | binds
B5 | binds
B6 | binds

These are yes or no findings as the source states them, for the method shown. Binding seen in cells or lysates may run through a third protein. Binding can be weak; no strength is given.
